Results reported in the supplement of paper PMC5355238.
Structures can show the parent of a compound that is named as a salt. The list shows a part of the results. Most values lie at the level of the controls, where differences are scatter.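 Reh, a human leukemia cell line, is read out by flow cytometry as the median γH2AX antibody signal in S-phase cells; the score counts standard deviations from the median difference of each paired plate set. Scores above 2.5 were candidate hits; scores below -2 mark compounds lowering MK1775-induced damage.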

What follows are compounds tested on Reh (assay: Z' of S-phase gammaH2AX difference (drug + MK1775 minus drug alone) (Z-score); higher = stronger synergistic S-phase DNA damage with MK1775). Details: MK1775 concentration 400 nM; first compound 10 µM; 4 h.
In the case of `CC(NC(=O)c1ccccc1/N=C/c1c(O)ccc2ccccc12)c1ccccc1` (stereo not given) [Sirtinol] + C=CCn1c(=O)c2cnc(Nc3ccc(N4CCN(C)CC4)cc3)nc2n1-c1cccc(C(C)(C)O)n1 [MK1775], the “Z' of S-phase gammaH2AX difference (Z-score)” value is reported as inactive: 0.462. `NC1CCN(c2cccc(Cl)n2)CC1` + C=CCn1c(=O)c2cnc(Nc3ccc(N4CCN(C)CC4)cc3)nc2n1-c1cccc(C(C)(C)O)n1 [MK1775] was tested, and the “Z' of S-phase gammaH2AX difference (Z-score)” value was inactive: 0.725. `NC(=NCCC[C@H](N)C(=O)O)NO` [NG-Hydroxy-L-arginine acetate] + C=CCn1c(=O)c2cnc(Nc3ccc(N4CCN(C)CC4)cc3)nc2n1-c1cccc(C(C)(C)O)n1 [MK1775] was tested, and the “Z' of S-phase gammaH2AX difference (Z-score)” value was inactive: 1.04. In the case of `CC(C)NCC(O)COc1ccc(CCOCC2CC2)cc1` (stereo not given) [Betaxolol hydrochloride] + C=CCn1c(=O)c2cnc(Nc3ccc(N4CCN(C)CC4)cc3)nc2n1-c1cccc(C(C)(C)O)n1 [MK1775], the “Z' of S-phase gammaH2AX difference (Z-score)” value is reported as inactive: 0.274. With `C[C@H]1c2cccc(O)c2C(=O)C2=C(O)[C@]3(O)C(=O)C(C(N)=O)=C(O)[C@@H](N(C)C)[C@@H]3[C@@H](O)[C@@H]21` [Doxycycline hydrochloride] + C=CCn1c(=O)c2cnc(Nc3ccc(N4CCN(C)CC4)cc3)nc2n1-c1cccc(C(C)(C)O)n1 [MK1775] the “Z' of S-phase gammaH2AX difference (Z-score)” value was inactive: -0.051. For `O=C(O)CNC(=O)C(CS)Cc1ccccc1` (racemic) [DL-Thiorphan] + C=CCn1c(=O)c2cnc(Nc3ccc(N4CCN(C)CC4)cc3)nc2n1-c1cccc(C(C)(C)O)n1 [MK1775], the “Z' of S-phase gammaH2AX difference (Z-score)” value was inactive: 0.285. `C[C@](N)(Cc1ccc(O)c(O)c1)C(=O)O` [L-alpha-Methyl DOPA] + C=CCn1c(=O)c2cnc(Nc3ccc(N4CCN(C)CC4)cc3)nc2n1-c1cccc(C(C)(C)O)n1 [MK1775] was tested, and the “Z' of S-phase gammaH2AX difference (Z-score)” value was inactive: 1.22. With `c1cnc(N2CCN(Cc3ccc4c(c3)OCO4)CC2)nc1` [Piribedil maleate] + C=CCn1c(=O)c2cnc(Nc3ccc(N4CCN(C)CC4)cc3)nc2n1-c1cccc(C(C)(C)O)n1 [MK1775] the “Z' of S-phase gammaH2AX difference (Z-score)” value was inactive: 0.64. `Fc1ccc(CN(C2=NCCN2)c2c(Cl)cccc2Cl)cc1` [IMID-4F hydrochloride] + C=CCn1c(=O)c2cnc(Nc3ccc(N4CCN(C)CC4)cc3)nc2n1-c1cccc(C(C)(C)O)n1 [MK1775] was tested, and the “Z' of S-phase gammaH2AX difference (Z-score)” value was inactive: 0.231. `Cc1nn(-c2ccccc2)c(C)c1C=NN1CCN(Cc2ccccc2)CC1` + C=CCn1c(=O)c2cnc(Nc3ccc(N4CCN(C)CC4)cc3)nc2n1-c1cccc(C(C)(C)O)n1 [MK1775] was tested, and the “Z' of S-phase gammaH2AX difference (Z-score)” value was inactive: -0.0998.
